For 14 molecules, T/C and survivor count results are on record in PubChem BioAssay AID248 (DTP/NCI, 2004).

The list is a part of this screen's results and no random one: its compounds were picked by chemical class. Not every dose and run of a compound is shown. T/C gives the treated animals as a percentage of the vehicle group. Some entries give survivors of the animals treated and no T/C: the source files T/C as zero there, which appears to mark a toxic dose or a test without result, not a measured value. Some survivor counts are full or nearly so, which does not show that the dose was tolerated: the source hardly ever lists a survival T/C far under the control, and the zero likely stands for such cases as well. Survivors were counted at the toxicity check, usually on the fifth day, unless a day is given; later deaths do not show. Schedule codes are those of the source, read here as Q, the interval in days (D) or hours (H), X, the number of doses. Some entries hold several experiments; the results are listed from low to high. Where survival is the endpoint, the PubChem record calls one and a half times the control and up active, and a quarter to a half above the control has no call in these data; cut-offs in other NCI protocols can differ. Some T/C values are followed by the survivors on the day toxicity was checked, most often the fifth; where neither a count nor a note follows, no animal had died by that day. Some schedule codes hold Z or #, which are not explained here. Some T/C values are marked as having no survivor count here; that says nothing about deaths at the dose.

The test relates to L1210 leukemia ip in BDF1 mice, survival T/C. The experiment in a line: NCI In Vivo Anticancer Drug Screen. Data for tumor model L1210 Leukemia (intraperitoneal) in B6D2F1 (BDF1) mice. The settings on record: T/C endpoint: mean survival time, higher T/C = longer survival.
Setting [1] is: dose: 3.13 mg/kg/injection, schedule: Q01DX009 (ip), vehicle: saline with Tween-80.
The mark [2] stands for this setting: dose: 6.25 mg/kg/injection, schedule: Q01DX009 (ip), vehicle: saline with Tween-80.
[3] abbreviates: dose: 12.5 mg/kg/injection, schedule: Q01DX009 (ip), vehicle: saline with Tween-80.
The mark [4] stands for this setting: dose: 25.0 mg/kg/injection, schedule: Q01DX009 (ip), vehicle: saline with Tween-80.
Setting [5] is: dose: 50.0 mg/kg/injection, schedule: Q01DX009 (ip), vehicle: saline with Tween-80.
The mark [6] stands for this setting: dose: 100.0 mg/kg/injection, schedule: Q01DX009 (ip), vehicle: saline with Tween-80.
Setting [7] is: dose: 200.0 mg/kg/injection, schedule: Q01DX009 (ip), vehicle: saline with Tween-80.
The mark [8] stands for this setting: dose: 75.0 mg/kg/injection, schedule: Q01DX001 (ip), vehicle: saline.
[9] abbreviates: dose: 150.0 mg/kg/injection, schedule: Q01DX001 (ip), vehicle: saline.
The mark [10] stands for this setting: dose: 300.0 mg/kg/injection, schedule: Q01DX001 (ip), vehicle: saline.
The mark [11] stands for this setting: dose: 100.0 mg/kg/injection, schedule: Q04DX003 (ip), vehicle: saline.
Where [12] appears, read: dose: 200.0 mg/kg/injection, schedule: Q04DX003 (ip), vehicle: saline.
Where [13] appears, read: dose: 400.0 mg/kg/injection, schedule: Q04DX003 (ip), vehicle: saline.
Setting [14] is: dose: 100.0 mg/kg/injection, schedule: Q01DX001 (ip), vehicle: saline.
[15] abbreviates: dose: 200.0 mg/kg/injection, schedule: Q01DX001 (ip), vehicle: saline.
Where [16] appears, read: dose: 100.0 mg/kg/injection, schedule: Q01DX009 (ip), vehicle: saline.
Where [17] appears, read: dose: 200.0 mg/kg/injection, schedule: Q01DX009 (ip), vehicle: saline.

As for `CC1CC[P+](c2ccccc2)(c2ccccc2)c2ccccc21.F[P-](F)(F)(F)(F)F` (centres undefined), the T/C was 107 % of control under setting [1]; 107 % of control under setting [2]; 103 and 107 % of control [2 of 3 alive] under setting [3]; 109 % of control under setting [4]; 103 and 111 % of control under setting [5]; 93 % of control under setting [6]. Moreover, under setting [7], the survivor count was 0 of 3.

`CN(C)CC1CCCCC(CN(C)C)C1OC(=O)C(O)(c1ccccc1)c1ccccc1` (centres undefined): the T/C under setting [8] was 110 % of control.

Turning to `CC(C)=N/N=C(\N)N[N+](=O)[O-]`, the T/C by setting is: under setting [8], 101 % of control; (dose: 75.0 mg/kg/injection, schedule: Q04DX003 (ip), vehicle: saline) 100 % of control; under setting [9], 101 % of control; (dose: 150.0 mg/kg/injection, schedule: Q04DX003 (ip), vehicle: saline) 96 % of control; under setting [10], 108 % of control [5 of 6 alive]. Where the note is “dose: 300.0 mg/kg/injection, schedule: Q04DX003 (ip), vehicle: saline”, the survivor count is recorded as 1 of 6.

Turning to `O=P(NCCCO)(OCCCl)N(CCCl)CCCl` (centres undefined), the T/C reads like this: (dose: 37.5 mg/kg/injection, schedule: Q01DX Z (ip), vehicle: methylcellulose (MC)) 110 % of control; (dose: 75.0 mg/kg/injection, schedule: Q01DX Z (ip), vehicle: methylcellulose (MC)) 92 % of control; (dose: 100.0 mg/kg/injection, schedule: Q01DX009 (ip), vehicle: saline sonified) 105 % of control; under setting [11], 107 % of control; (dose: 150.0 mg/kg/injection, schedule: Q01DX Z (ip), vehicle: methylcellulose (MC)) 94 % of control; (dose: 200.0 mg/kg/injection, schedule: Q01DX009 (ip), vehicle: saline sonified) 101 % of control. Moreover, the T/C by setting is: under setting [12], 95 % of control; (dose: 300.0 mg/kg/injection, schedule: Q01DX Z (ip), vehicle: methylcellulose (MC)) 98 % of control [5 of 6 alive]; (dose: 400.0 mg/kg/injection, schedule: Q01DX009 (ip), vehicle: saline sonified) 110 % of control; under setting [13], 102 % of control [5 of 6 alive]; (dose: 750.0 mg/kg/injection, schedule: Q01DX Z (oral), vehicle: carboxymethylcellulose (CMC)) 90 % of control [5 of 6 alive]; (dose: 1000.0 mg/kg/injection, schedule: Q01DX Z (oral), vehicle: carboxymethylcellulose (CMC)) 98 % of control.

As to `C(=C/[AsH](c1ccccc1)c1ccccc1)/[AsH](c1ccccc1)c1ccccc1.C(=C/[AsH](c1ccccc1)c1ccccc1)/[AsH](c1ccccc1)c1ccccc1.F[P-](F)(F)(F)(F)F.O=S(=O)([O-])[O-].[Rh+3]`, the T/C was 104 % of control (dose: 50.0 mg/kg/injection, schedule: Q01DX001 (ip), vehicle: saline); 114 % of control [5 of 6 alive] under setting [14]; 112 % of control [4 of 6 alive] under setting [15].

For the molecule `COc1c(OC)c2c(C)c3ccccc3c(C)c2c2ccccc12.O=C1c2cc([N+](=O)[O-])ccc2-c2c1cc([N+](=O)[O-])cc2[N+](=O)[O-]`, the T/C is, setting by setting: (dose: 100.0 mg/kg/injection, schedule: Q01DX001 (ip), vehicle: saline with Tween-80) 89 % of control; (dose: 400.0 mg/kg/injection, schedule: Q01DX001 (ip), vehicle: saline with Tween-80) 88 % of control. Also, the survivor count (dose: 200.0 mg/kg/injection, schedule: Q01DX001 (ip), vehicle: saline with Tween-80) is reported as 6 of 6.

As to `OC(SCc1c(Cl)c(Cl)c(Cl)c(Cl)c1Cl)C(Cl)(Cl)Cl` (centres undefined), the T/C was 91 % of control (dose: 75.0 mg/kg/injection, schedule: Q01DX009 (ip), vehicle: saline with Tween-80) and 98 % of control [5 of 6 alive] (dose: 150.0 mg/kg/injection, schedule: Q01DX009 (ip), vehicle: saline with Tween-80). Further, for the setting “dose: 300.0 mg/kg/injection, schedule: Q01DX009 (ip), vehicle: saline with Tween-80”, the survivor count is 2 of 6.

Take `NC(=NCCN/C(N)=N/[N+](=O)[O-])N[N+](=O)[O-]`: the T/C is, setting by setting: (dose: 50.0 mg/kg/injection, schedule: Q01DX009 (ip), vehicle: saline) 104 % of control [survivor count not shown]; under setting [16], 96 % of control [survivor count not shown]; under setting [17], 98 % of control [survivor count not shown].

Take `CC(=O)CC(=O)OC1CN2CCC1CC2` (centres undefined): the T/C by setting is: (dose: 100.0 mg/kg/injection, schedule: Q04DX002 (ip), vehicle: saline) 96 % of control; (dose: 200.0 mg/kg/injection, schedule: Q04DX002 (ip), vehicle: saline) 96 % of control; (dose: 400.0 mg/kg/injection, schedule: Q04DX002 (ip), vehicle: saline) 93 % of control [2 of 3 alive].

Regarding `NC1=NP(=O)(Oc2ccccc2)N=C(Nc2ccccc2)N1` (centres undefined), the T/C is 95 % of control (dose: 100.0 mg/kg/injection, schedule: Q04DX003 (ip), vehicle: Klucel (hydroxypropylcellulose) (HPC)); 100 % of control (dose: 200.0 mg/kg/injection, schedule: Q04DX003 (ip), vehicle: Klucel (hydroxypropylcellulose) (HPC)); 95 % of control (dose: 400.0 mg/kg/injection, schedule: Q04DX003 (ip), vehicle: Klucel (hydroxypropylcellulose) (HPC)).

In the case of `O=[As](O)(c1ccccc1Br)c1ccccc1Br`, the T/C is 100 % of control under setting [8] and 100 % of control [4 of 6 alive] under setting [9]. The survivor count under setting [10] was 3 of 6.

Consider `CCOP(=O)(CCCl)OCC`, for which the T/C is, setting by setting: under setting [14], 108 % of control [5 of 6 alive]; under setting [16], 97 % of control; under setting [11], 102 % of control; under setting [15], 105 % of control; under setting [17], 101 % of control; under setting [12], 109 % of control. The T/C was 105 % of control (dose: 400.0 mg/kg/injection, schedule: Q01DX001 (ip), vehicle: saline); 95 % of control (dose: 400.0 mg/kg/injection, schedule: Q01DX009 (ip), vehicle: saline); 104 % of control under setting [13].

As to `CC1CC[P+](C)(c2ccccc2)c2ccccc21.F[P-](F)(F)(F)(F)F` (centres undefined), the T/C under setting [1] was 107 % of control. The survivor count is 3 of 3 under setting [2]; 0 of 3 and 1 of 3 under setting [3]; 0 of 3 under setting [4]; 0 of 3 under setting [5]; 0 of 3 under setting [6]; 0 of 3 under setting [7].

Consider `NP(=O)(Oc1ccccc1)N(CCCl)CCCl` (centres undefined), for which the T/C is 96 % of control (dose: 40.0 mg/kg/injection, schedule: Q01DX010 (ip), vehicle: water); 96 % of control (dose: 80.0 mg/kg/injection, schedule: Q01DX010 (ip), vehicle: water); 94 % of control (dose: 160.0 mg/kg/injection, schedule: Q01DX009 (ip), vehicle: water); 96 % of control (dose: 200.0 mg/kg/injection, schedule: Q01DX009 (ip), vehicle: water); 96 % of control (dose: 250.0 mg/kg/injection, schedule: Q01DX Z (ip), vehicle: water); 91 % of control [5 of 6 alive] (dose: 500.0 mg/kg/injection, schedule: Q01DX Z (ip), vehicle: water).
